From PMC9233675, “Ru(II) photocages enable precise control over enzyme activity with red light” (Nature Communications, 2022)

Assays:
[1] = Stability of compounds in human liver microsomes
[2] = Stability of compounds in mouse liver microsomes
[3] = Stability of compounds in rat liver microsomes

## CCCNCC(O)COc1ccccc1C(=O)CCc1ccccc1 (stereo not drawn) [Propafenone, reference compound]
[1]
  Remaining, % (T=60min): 0.0%
[1]; no co-factor (no NADPH)
  Remaining, % (NCF=60min): 92.4%
[2]
  Remaining, % (T=60min): 0.0%
[2]; no co-factor (no NADPH)
  Remaining, % (NCF=60min): 111.8%
[3]
  Remaining, % (T=60min): 0.0%
[3]; no co-factor (no NADPH)
  Remaining, % (NCF=60min): 103.2%
